No constants are given. Whether binding was seen depends on the method and setting. Binding seen in cells or lysates may run through a third protein. Here binding means that the protein was enriched with, or labelled near, the bait; the list need not be complete. Sequences can lack the tags named with a protein.
Target: T1, Epstein-Barr virus (EBV) BGLF2 protein, FLAG-tagged (Epstein-Barr virus) (UniProt P0CK53)
T1 sequence: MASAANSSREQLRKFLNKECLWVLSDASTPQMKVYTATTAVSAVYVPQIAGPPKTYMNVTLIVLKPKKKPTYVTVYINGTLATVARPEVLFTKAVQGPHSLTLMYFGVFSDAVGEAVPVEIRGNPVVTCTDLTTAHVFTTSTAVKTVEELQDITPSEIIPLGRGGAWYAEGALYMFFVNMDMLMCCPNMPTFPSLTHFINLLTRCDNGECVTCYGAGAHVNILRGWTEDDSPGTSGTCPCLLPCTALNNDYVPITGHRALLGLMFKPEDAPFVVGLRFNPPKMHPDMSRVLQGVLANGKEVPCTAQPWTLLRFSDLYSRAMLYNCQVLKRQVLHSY
Experiment: affinity purification with mass spectrometry; BGLF2-FLAG expressed in 293T cells, recovered on M2 anti-FLAG resin from lysate in modified RIPA buffer (250 mM NaCl), 4 h at 4°C; co-purifying proteins by LC-MS/MS; two experiments, compared with empty FLAG plasmid and the CRAPome

The chains behind the UniProt entries cited, without tags or fusion partners.
UniProt Q8N6T3: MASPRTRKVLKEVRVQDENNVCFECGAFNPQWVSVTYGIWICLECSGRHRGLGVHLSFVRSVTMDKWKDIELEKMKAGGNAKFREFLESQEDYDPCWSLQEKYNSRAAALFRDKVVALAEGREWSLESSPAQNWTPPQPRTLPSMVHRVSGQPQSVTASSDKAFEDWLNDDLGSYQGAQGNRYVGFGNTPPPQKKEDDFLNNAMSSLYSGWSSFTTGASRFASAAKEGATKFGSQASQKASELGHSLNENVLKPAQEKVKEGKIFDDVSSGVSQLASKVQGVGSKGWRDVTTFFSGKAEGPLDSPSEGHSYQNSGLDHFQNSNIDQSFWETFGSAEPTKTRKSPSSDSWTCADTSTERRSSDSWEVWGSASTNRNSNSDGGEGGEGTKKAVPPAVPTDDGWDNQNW
UniProt Q9HD34: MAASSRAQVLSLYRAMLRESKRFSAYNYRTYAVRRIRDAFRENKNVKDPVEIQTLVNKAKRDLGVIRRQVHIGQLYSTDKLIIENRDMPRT
UniProt Q9Y5X1: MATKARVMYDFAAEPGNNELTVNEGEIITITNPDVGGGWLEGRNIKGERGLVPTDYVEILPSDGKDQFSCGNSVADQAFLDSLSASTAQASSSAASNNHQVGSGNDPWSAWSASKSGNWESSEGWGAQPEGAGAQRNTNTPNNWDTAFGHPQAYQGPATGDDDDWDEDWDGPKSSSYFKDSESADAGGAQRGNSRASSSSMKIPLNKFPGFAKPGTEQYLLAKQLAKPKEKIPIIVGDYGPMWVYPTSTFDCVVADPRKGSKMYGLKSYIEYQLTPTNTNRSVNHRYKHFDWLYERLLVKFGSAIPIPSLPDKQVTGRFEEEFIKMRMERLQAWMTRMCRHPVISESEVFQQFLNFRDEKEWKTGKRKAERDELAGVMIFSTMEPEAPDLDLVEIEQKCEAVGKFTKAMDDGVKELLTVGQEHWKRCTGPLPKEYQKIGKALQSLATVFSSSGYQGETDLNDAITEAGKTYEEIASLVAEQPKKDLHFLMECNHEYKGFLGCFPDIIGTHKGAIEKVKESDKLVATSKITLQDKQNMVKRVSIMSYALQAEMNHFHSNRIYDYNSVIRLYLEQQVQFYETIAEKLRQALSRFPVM
UniProt Q8NDV7: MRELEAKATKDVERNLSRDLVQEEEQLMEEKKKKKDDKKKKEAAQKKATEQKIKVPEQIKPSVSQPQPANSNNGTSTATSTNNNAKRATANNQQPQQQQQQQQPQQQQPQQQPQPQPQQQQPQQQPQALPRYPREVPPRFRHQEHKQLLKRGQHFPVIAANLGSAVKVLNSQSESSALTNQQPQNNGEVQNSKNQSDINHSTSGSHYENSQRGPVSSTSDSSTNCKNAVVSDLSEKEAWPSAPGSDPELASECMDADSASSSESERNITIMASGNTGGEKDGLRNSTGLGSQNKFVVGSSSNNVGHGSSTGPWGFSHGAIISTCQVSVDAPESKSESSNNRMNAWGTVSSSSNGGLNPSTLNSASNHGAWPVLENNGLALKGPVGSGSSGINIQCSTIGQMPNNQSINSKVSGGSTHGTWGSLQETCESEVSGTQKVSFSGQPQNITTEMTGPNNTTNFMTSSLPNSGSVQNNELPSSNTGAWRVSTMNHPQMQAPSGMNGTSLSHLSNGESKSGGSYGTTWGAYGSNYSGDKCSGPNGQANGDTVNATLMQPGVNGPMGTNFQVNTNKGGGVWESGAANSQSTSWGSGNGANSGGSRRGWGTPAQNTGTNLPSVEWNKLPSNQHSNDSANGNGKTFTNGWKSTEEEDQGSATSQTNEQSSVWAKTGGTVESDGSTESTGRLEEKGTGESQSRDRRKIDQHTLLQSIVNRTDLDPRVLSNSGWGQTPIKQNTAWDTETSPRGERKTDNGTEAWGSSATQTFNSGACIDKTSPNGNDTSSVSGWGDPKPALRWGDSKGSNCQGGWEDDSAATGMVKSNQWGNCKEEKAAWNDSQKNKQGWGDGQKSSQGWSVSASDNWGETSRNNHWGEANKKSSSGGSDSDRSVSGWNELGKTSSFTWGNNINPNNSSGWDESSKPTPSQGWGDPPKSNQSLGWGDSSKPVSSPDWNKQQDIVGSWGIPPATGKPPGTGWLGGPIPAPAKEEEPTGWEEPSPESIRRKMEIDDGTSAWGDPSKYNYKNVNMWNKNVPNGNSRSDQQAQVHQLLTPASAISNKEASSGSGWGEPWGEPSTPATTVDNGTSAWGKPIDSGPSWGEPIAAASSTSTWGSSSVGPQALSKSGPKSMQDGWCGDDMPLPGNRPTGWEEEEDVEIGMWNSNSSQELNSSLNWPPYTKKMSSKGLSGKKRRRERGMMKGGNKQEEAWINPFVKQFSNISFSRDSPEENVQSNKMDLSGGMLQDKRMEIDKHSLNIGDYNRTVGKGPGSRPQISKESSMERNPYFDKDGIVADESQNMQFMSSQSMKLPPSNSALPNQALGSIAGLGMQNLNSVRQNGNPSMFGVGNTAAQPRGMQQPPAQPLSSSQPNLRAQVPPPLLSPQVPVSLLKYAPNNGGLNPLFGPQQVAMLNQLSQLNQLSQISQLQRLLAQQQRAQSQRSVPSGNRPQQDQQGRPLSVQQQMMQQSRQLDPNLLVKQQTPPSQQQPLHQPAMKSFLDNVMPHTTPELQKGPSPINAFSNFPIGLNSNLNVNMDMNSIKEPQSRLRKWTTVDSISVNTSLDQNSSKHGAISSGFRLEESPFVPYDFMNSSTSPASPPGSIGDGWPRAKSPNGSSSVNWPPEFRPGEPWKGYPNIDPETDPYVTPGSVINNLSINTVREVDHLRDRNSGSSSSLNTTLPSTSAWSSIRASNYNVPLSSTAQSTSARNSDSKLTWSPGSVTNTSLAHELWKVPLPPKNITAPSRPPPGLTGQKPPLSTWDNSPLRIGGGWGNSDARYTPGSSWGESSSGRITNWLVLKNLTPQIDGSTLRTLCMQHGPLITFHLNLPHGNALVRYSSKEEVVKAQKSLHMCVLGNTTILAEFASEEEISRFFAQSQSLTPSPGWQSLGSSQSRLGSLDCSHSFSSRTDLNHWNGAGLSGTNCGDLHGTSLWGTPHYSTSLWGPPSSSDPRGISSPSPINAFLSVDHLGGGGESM
UniProt Q9P2E3: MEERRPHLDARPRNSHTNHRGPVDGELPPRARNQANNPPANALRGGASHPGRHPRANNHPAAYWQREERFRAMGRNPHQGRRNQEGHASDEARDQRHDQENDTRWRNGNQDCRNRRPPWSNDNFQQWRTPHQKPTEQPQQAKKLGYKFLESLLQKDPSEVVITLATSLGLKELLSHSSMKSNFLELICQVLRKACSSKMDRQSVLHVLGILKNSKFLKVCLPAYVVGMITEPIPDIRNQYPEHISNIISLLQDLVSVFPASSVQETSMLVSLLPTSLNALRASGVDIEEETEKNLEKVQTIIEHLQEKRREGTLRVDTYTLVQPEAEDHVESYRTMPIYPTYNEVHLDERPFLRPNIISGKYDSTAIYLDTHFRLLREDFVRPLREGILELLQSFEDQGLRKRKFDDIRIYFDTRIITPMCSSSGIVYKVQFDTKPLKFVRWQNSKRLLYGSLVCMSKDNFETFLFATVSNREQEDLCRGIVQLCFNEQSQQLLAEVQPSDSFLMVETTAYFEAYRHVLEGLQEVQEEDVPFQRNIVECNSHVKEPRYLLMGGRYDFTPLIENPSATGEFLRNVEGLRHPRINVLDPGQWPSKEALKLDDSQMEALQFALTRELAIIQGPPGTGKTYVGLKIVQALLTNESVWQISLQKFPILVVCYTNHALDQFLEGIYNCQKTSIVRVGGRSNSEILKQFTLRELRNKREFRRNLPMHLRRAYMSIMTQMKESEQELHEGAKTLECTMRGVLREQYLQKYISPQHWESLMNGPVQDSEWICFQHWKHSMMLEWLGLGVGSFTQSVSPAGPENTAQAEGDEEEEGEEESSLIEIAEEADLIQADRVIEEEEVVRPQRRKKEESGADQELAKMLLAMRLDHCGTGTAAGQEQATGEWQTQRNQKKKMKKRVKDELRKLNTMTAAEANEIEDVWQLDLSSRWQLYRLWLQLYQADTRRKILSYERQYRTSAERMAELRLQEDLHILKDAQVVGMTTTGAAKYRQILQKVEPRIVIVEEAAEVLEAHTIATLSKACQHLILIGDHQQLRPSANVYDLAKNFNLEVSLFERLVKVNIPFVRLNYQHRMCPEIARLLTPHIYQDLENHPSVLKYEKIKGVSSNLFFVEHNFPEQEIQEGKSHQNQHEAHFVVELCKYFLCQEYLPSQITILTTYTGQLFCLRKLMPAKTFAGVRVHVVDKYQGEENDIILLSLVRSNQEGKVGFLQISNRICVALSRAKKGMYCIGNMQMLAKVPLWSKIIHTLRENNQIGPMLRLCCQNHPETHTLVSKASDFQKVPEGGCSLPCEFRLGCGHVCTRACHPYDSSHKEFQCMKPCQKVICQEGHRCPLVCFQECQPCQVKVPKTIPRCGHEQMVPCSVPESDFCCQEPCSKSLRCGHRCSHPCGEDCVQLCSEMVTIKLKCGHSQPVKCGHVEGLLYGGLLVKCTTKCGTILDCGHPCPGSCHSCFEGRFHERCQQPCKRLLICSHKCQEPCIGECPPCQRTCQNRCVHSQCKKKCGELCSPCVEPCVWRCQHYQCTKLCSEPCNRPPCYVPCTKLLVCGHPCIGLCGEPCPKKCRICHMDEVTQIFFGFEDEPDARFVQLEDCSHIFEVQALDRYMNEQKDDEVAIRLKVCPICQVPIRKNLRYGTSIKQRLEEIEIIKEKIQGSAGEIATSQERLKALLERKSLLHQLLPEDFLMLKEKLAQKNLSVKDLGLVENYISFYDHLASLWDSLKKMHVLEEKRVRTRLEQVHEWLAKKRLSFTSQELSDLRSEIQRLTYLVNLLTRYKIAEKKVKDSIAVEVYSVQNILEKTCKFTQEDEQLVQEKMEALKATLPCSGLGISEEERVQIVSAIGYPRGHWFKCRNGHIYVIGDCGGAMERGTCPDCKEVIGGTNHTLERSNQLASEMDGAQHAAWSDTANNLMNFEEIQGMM
UniProt Q9Y5A6: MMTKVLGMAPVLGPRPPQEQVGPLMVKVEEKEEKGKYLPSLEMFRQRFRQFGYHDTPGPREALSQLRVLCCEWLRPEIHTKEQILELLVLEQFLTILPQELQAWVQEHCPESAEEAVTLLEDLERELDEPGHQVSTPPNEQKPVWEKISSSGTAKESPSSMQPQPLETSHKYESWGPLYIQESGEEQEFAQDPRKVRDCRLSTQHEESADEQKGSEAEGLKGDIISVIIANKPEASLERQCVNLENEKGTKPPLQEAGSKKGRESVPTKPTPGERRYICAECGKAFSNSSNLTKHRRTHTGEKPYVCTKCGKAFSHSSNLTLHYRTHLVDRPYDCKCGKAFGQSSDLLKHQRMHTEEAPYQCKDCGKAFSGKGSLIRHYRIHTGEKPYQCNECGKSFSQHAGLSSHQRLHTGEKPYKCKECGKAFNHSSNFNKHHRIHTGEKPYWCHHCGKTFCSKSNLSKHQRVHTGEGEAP
UniProt Q8TD19: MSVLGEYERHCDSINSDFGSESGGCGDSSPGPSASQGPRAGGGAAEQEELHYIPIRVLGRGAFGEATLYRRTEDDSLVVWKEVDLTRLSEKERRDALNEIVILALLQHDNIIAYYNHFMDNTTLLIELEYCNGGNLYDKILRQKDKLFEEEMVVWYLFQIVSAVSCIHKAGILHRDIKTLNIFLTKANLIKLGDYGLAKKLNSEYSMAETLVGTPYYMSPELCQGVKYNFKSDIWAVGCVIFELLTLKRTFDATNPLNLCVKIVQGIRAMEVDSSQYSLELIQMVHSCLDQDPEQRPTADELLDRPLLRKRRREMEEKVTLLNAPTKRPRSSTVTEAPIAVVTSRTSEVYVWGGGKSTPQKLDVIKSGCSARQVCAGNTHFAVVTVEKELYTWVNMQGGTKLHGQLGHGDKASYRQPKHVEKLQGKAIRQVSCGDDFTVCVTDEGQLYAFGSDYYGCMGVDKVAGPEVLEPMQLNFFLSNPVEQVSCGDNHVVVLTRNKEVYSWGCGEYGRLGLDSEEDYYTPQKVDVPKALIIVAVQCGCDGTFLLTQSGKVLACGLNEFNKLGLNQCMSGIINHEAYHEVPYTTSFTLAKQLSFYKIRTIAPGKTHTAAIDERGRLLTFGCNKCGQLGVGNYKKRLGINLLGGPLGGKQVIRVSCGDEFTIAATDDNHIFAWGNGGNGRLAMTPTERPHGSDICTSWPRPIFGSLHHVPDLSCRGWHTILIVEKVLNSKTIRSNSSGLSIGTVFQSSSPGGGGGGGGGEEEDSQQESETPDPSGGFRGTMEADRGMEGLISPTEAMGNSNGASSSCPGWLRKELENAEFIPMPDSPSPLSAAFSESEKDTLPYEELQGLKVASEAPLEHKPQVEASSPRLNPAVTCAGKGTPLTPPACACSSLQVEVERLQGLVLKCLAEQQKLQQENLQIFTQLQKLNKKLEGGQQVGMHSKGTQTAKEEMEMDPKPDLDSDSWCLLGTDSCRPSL

Molecule	binding
ARFGAP1 (from UniProt Q8N6T3 1-406)	binds
Argonaute 1 (from UniProt Q9UL18 1-857)	binds
Argonaute 2 (from UniProt Q9UKV8 1-859)	binds
DIS3L (from UniProt Q8TF46 1-1054)	binds
EIF4E2 (from UniProt O60573 1-245)	binds
FAM120B (from UniProt Q96EK7 1-910)	binds
FAM204A (from UniProt Q9H8W3 1-233)	binds
GIGYF1 (from UniProt O75420 1-1035)	binds
KBTBD6 (from UniProt Q86V97 1-674)	binds
LYRM4 (from UniProt Q9HD34 1-91)	binds
NFS1 (human (endogenous in 293T))	binds
PRRC2B (from UniProt Q5JSZ5 1-2229)	binds
PRRC2C (from UniProt Q9Y520 1-2896)	binds
SNX9 (from UniProt Q9Y5X1 1-595)	binds
TNRC6A (GW182) (from UniProt Q8NDV7 1-1962)	binds
TNRC6B (from UniProt Q9UPQ9 1-1833)	binds
TNRC6C (from UniProt Q9HCJ0 1-1936)	binds
UBAP2L (from UniProt Q14157 1-1087)	binds
ZNFX1 (from UniProt Q9P2E3 1-1918)	binds
ZSCAN21 (from UniProt Q9Y5A6 1-473)	binds
cellular NIMA-related protein kinase (HNEK9) (from UniProt Q8TD19 1-979)	binds
GIGYF2 (protein, UniProt Q6Y7W6 1-1299) MAAETQTLNFGPEWLRALSSGGSITSPPLSPALPKYKLADYRYGREEMLALFLKDNKIPSDLLDKEFLPILQEEPLPPLALVPFTEEEQRNFSMSVNSAAVLRLTGRGGGGTVVGAPRGRSSSRGRGRGRGECGFYQRSFDEVEGVFGRGGGREMHRSQSWEERGDRRFEKPGRKDVGRPNFEEGGPTSVGRKHEFIRSESENWRIFREEQNGEDEDGGWRLAGSRRDGERWRPHSPDGPRSAGWREHMERRRRFEFDFRDRDDERGYRRVRSGSGSIDDDRDSLPEWCLEDAEEEMGTFDSSGAFLSLKKVQKEPIPEEQEMDFRPVDEGEECSDSEGSHNEEAKEPDKTNKKEGEKTDRVGVEASEETPQTSSSSARPGTPSDHQSQEASQFERKDEPKTEQTEKAEEETRMENSLPAKVPSRGDEMVADVQQPLSQIPSDTASPLLILPPPVPNPSPTLRPVETPVVGAPGMGSVSTEPDDEEGLKHLEQQAEKMVAYLQDSALDDERLASKLQEHRAKGVSIPLMHEAMQKWYYKDPQGEIQGPFNNQEMAEWFQAGYFTMSLLVKRACDESFQPLGDIMKMWGRVPFSPGPAPPPHMGELDQERLTRQQELTALYQMQHLQYQQFLIQQQYAQVLAQQQKAALSSQQQQQLALLLQQFQTLKMRISDQNIIPSVTRSVSVPDTGSIWELQPTASQPTVWEGGSVWDLPLDTTTPGPALEQLQQLEKAKAAKLEQERREAEMRAKREEEERKRQEELRRQQEEILRRQQEEERKRREEEELARRKQEEALRRQREQEIALRRQREEEERQQQEEALRRLEERRREEEERRKQEELLRKQEEEAAKWAREEEEAQRRLEENRLRMEEEAARLRHEEEERKRKELEVQRQKELMRQRQQQQEALRRLQQQQQQQQLAQMKLPSSSTWGQQSNTTACQSQATLSLAEIQKLEEERERQLREEQRRQQRELMKALQQQQQQQQQKLSGWGNVSKPSGTTKSLLEIQQEEARQMQKQQQQQQQHQQPNRARNNTHSNLHTSIGNSVWGSINTGPPNQWASDLVSSIWSNADTKNSNMGFWDDAVKEVGPRNSTNKNKNNASLSKSVGVSNRQNKKVEEEEKLLKLFQGVNKAQDGFTQWCEQMLHALNTANNLDVPTFVSFLKEVESPYEVHDYIRAYLGDTSEAKEFAKQFLERRAKQKANQQRQQQQLPQQQQQQPPQQPPQQPQQQDSVWGMNHSTLHSVFQTNQSNNQQSNFEAVQSGKKKKKQKMVRADPSLLGFSVNASSERLNMGEIETLDDY	binds
UBAP2 (protein, UniProt Q5T6F2 1-1119) MMTSVSSDHCRGAREKPQISAAQSTQPQKQVVQATAEQMRLAQVIFDKNDSDFEAKVKQLMEVTGKNQDECIVALHDCNGDVNKAINILLEGNSDTTSWETVGCKKKNFAKENSENKENREKKSEKESSRGRGNNNRKGRGGNRGREFRGEENGIDCNQVDKPSDRGKRARGRGFGRGRGRGAGRFSTQGMGTFNPADYSDSTSTDVCGTKLVVWEAAQNGADEGTELASNTHNIAQDLSNKSSYGLKGAWKNSVEEWTTEDWTEDLSETKVFTASSAPAENHILPGQSIDLVALLQKPVPHSQASEANSFETSQQQGFGQALVFTNSQHNNQMAPGTGSSTAVNSCSPQSLSSVLGSGFGELAPPKMANITSSQILDQLKAPSLGQFTTTPSTQQNSTSHPTTTTSWDLKPPTSQSSVLSHLDFKSQPEPSPVLSQLSQRQQHQSQAVTVPPPGLESFPSQAKLRESTPGDSPSTVNKLLQLPSTTIENISVSVHQPQPKHIKLAKRRIPPASKIPASAVEMPGSADVTGLNVQFGALEFGSEPSLSEFGSAPSSENSNQIPISLYSKSLSEPLNTSLSMTSAVQNSTYTTSVITSCSLTSSSLNSASPVAMSSSYDQSSVHNRIPYQSPVSSSESAPGTIMNGHGGGRSQQTLDTPKTTGPPSALPSVSSLPSTTSCTALLPSTSQHTGDLTSSPLSQLSSSLSSHQSSLSAHAALSSSTSHTHASVESASSHQSSATFSTAATSVSSSASSGASLSSSMNTANSLCLGGTPASASSSSSRAAPLVTSGKAPPNLPQGVPPLLHNQYLVGPGGLLPAYPIYGYDELQMLQSRLPVDYYGIPFAAPTALASRDGSLANNPYPGDVTKFGRGDSASPAPATTPAQPQQSQSQTHHTAQQPFVNPALPPGYSYTGLPYYTGMPSAFQYGPTMFVPPASAKQHGVNLSTPTPPFQQASGYGQHGYSTGYDDLTQGTAAGDYSKGGYAGSSQAPNKSAGSGPGKGVSVSSSTTGLPDMTGSVYNKTQTFDKQGFHAGTPPPFSLPSVLGSTGPLASGAAPGYAPPPFLHILPAHQQPHSQLLHHHLPQDAQSGSGQRSQPSSLQPKSQASKPAYGNSPYWTN	binds
AAMP (protein, UniProt Q13685 1-434) MESESESGAAADTPPLETLSFHGDEEIIEVVELDPGPPDPDDLAQEMEDVDFEEEEEEEGNEEGWVLEPQEGVVGSMEGPDDSEVTFALHSASVFCVSLDPKTNTLAVTGGEDDKAFVWRLSDGELLFECAGHKDSVTCAGFSHDSTLVATGDMSGLLKVWQVDTKEEVWSFEAGDLEWMEWHPRAPVLLAGTADGNTWMWKVPNGDCKTFQGPNCPATCGRVLPDGKRAVVGYEDGTIRIWDLKQGSPIHVLKGTEGHQGPLTCVAANQDGSLILTGSVDCQAKLVSATTGKVVGVFRPETVASQPSLGEGEESESNSVESLGFCSVMPLAAVGYLDGTLAIYDLATQTLRHQCQHQSGIVQLLWEAGTAVVYTCSLDGIVRLWDARTGRLLTDYRGHTAEILDFALSKDASLVVTTSGDHKAKVFCVQRPDR	binds
NECAP2 (protein, UniProt Q9NVZ3 1-263) MEESGYESVLCVKPDVHVYRIPPRATNRGYRAAEWQLDQPSWSGRLRITAKGQMAYIKLEDRTSGELFAQAPVDQFPGTAVESVTDSSRYFVIRIEDGNGRRAFIGIGFGDRGDAFDFNVALQDHFKWVKQQCEFAKQAQNPDQGPKLDLGFKEGQTIKLNIANMKKKEGAAGNPRVRPASTGGLSLLPPPPGGKTSTLIPPPGEQLAVGGSLVQPAVAPSSGGAPVPWPQPNPATADIWGDFTKSTGSTSSQTQPGTGWVQF	binds

Reference: paper PMC8782528
